According to paper PMC5996148:
The list shows a part of the results.

Key:
Assay in all cases: protein microarray (ProtoArray v5.0), streptavidin-Alexa Fluor 647
Conditions in all cases: 3'-biotin; 20 mM Tris (pH 7.5), 5 mM MgCl2, 100 mM KCl, 0.1% Tween-20, A/T-rich and random oligonucleotide blockers; temperature not stated; high values mean tight binding
[1] = system: C6orf89 (human)
[2] = system: C7orf13 (human)
[3] = system: C7orf24 (human)
[4] = system: C7orf25 (human)
[5] = system: C7orf27 (human)
[6] = system: C7orf30 (human)
[7] = system: C7orf36 (human)
[8] = system: C7orf41 (human)
[9] = system: C7orf42 (human)
[10] = system: C7orf45 (human)

Sequence: GGGAGGCTGAGGCAGG [G4-1 biotinylated (PQS2)]
- binding signal [1]: -0.346 z-score
- binding signal [2]: -0.313 z-score
- binding signal [3]: -0.331 z-score
- binding signal [4]: -0.253 z-score
- binding signal [5]: -0.329 z-score
- binding signal [6]: -0.334 z-score
- binding signal [7]: -0.361 z-score
- binding signal [8]: -0.364 z-score
- binding signal [9]: -0.271 z-score
- binding signal [10]: -0.306 z-score
